# According to PubChem BioAssay AID2685 (National Center for Advancing Translational Sciences (NCATS), 2010):
# This is one part of the list. Further columns of the screen follow, without active or inactive calls. The list favours compounds with an active or inconclusive main result. The note in brackets gives the kind of curve behind each potency; many fits are weak.
# Test: qHTS Assay for Lipid Storage Modulators in Drosophila S3 Cells;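 on cell number change: cells counted by Cell Tracker Red CMTPX staining in the red channel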
# Conditions: BODIPY lipid droplet fluorescence, 18-24 h; for cell number change: measured here: cell count max response, cells fed with added oleic acid
# Procedure, shortened: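 Drosophila S3 cells loaded with oleic acid (400 uM, as added) and compounds at several concentrations; lipid droplets imaged by 488-nm laser-scanning cytometry, 500–530 nm intensity and object ratio to cell channel. Percent activity normalized to 20 uM Triacsin C.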
# [1] = measured here: lipid fluorescence (Fed channel) AC50, cells fed with added oleic acid
# [2] = measured here: cell number channel AC50, cells fed with added oleic acid
SMILES,cell number change [%],AC50 [1],AC50 [2]
Cc1ccccc1CN1CCN(C(=O)c2ccc(F)cc2)CC1,9.34,–,–
CCOc1ccc(NCC(=O)N/N=C/C=C/c2ccccc2)cc1,0.868,"4.11 µM [rising, partial curve, poor fit]",–
CC(=O)C1C(c2cccc(F)c2)c2c(n[nH]c2C)CC1(C)O (stereo unspecified),-6.78,"29.1 µM [falling, single point]",–
COc1cc2c(cc1OC)CN(C(=O)COc1ccc(C#N)cc1)CC2,–,"6.51 µM [rising, single point]",–
CN(Cc1cnn(-c2ccccc2)c1)C(=O)C1CCC(=O)N(C2CC2)C1 (stereo unspecified),21.1,–,–
O=C(COc1ccc2c(c1)OCO2)Nc1cccc(F)c1,-20,"29.1 µM [rising, single point]",–
Cc1nn(Cc2ccccc2)c(N)c1C#N,-9.1,–,–
CN(C)CCNC(=O)/C(=C/c1ccc(-c2cccc([N+](=O)[O-])c2)o1)NC(=O)c1ccccc1,19.4,"2.59 µM [rising, partial curve, poor fit]",–
O=C(CN1C(=O)c2ccccc2S1(=O)=O)N1CCc2ccccc2C1,0.255,"29.1 µM [rising, single point]",–
CCOC(=O)C1=C(C)N=C2SC(C)C(=O)N2C1c1ccc(C(=O)OC)cc1 (stereo unspecified),-29.6,"0.103 µM [falling, full curve]",–
Cc1oc2c(C)c3oc(=O)c(CC(=O)N[C@@H](CCCNC(N)=O)C(=O)O)c(C)c3cc2c1C,–,"18.4 µM [rising, partial curve, poor fit]",–
O=S(=O)(Nc1cccc(-c2nc3cccnc3s2)c1)c1cccs1,17.1,"0.058 µM [rising, full curve, poor fit]",–
NNc1nc2ccc(Cl)cc2s1,-4.83,"16.4 µM [falling, single point]",–
C/C(Cn1nnc([N+](=O)[O-])n1)=N\NC(=O)c1ccc(Cl)c(Cl)c1,-16.6,"0.731 µM [rising, single point]",–
COc1cccc(NC(=O)CSc2nc3c(sc4ccccc43)c(=O)n2CCCN2CCCC2)c1,64.5,"29.1 µM [falling, single point]","29.1 µM [rising, single point]"
COc1ccc(OC)c(NC(=O)Nc2ccc(Cl)cc2)c1,-99,"25.9 µM [falling, partial curve]","16.4 µM [falling, partial curve, poor fit]"
Cc1cc(C)n(-c2ccc(C(=O)Oc3ccc4c(c3)OCO4)cc2)n1,176,–,"20.6 µM [rising, single point]"
COc1ccc(NC(=O)N2c3ccc(OC)cc3C(C)=CC2(C)C)cc1,-54.2,"23.1 µM [falling, single point]","20.6 µM [falling, single point]"
CC(Oc1ccccc1F)c1nnc(SCC(=O)NCc2ccc3c(c2)OCO3)o1 (stereo unspecified),21.4,"0.103 µM [rising, partial curve, poor fit]",–
CCOC(=O)N1CCC(N2C(=O)c3ccc(C(=O)O)cc3C2=O)CC1,-98.9,"23.1 µM [falling, partial curve]","29.1 µM [falling, partial curve]"

SMILES,cell number change [%],AC50 [1],AC50 [2]
COCCn1c(SCc2ccccc2F)nc2ccccc2c1=O,58.8,"23.1 µM [rising, single point]","20.6 µM [rising, single point]"
CCCCCC(=O)Nc1nc(C)c(-c2csc(Nc3ccccc3OC)n2)s1,-30.6,–,"7.31 µM [falling, partial curve]"
CCCn1c(SCC(=O)c2ccc3c(c2)NC(=O)CO3)nc2ccccc21,-18.5,"14.6 µM [falling, partial curve, poor fit]",–
CN(Cc1nc(-c2cccnc2)no1)S(=O)(=O)c1ccc2ccccc2c1,-2.39,"0.651 µM [rising, full curve]",–
COc1cc(OC)cc(-c2c(-c3cccs3)c3cc(-c4ccn[nH]4)ccc3n2C)c1,-7.83,"0.291 µM [rising, partial curve]",–
COc1cc(/C=N\NC(=O)c2ccc(-c3ccccc3)cc2)cc(OC)c1OC(C)=O,-21.7,–,–
CC1(C)CC(=O)C2=C(C1)Nc1ccccc1NC2c1cc(Cl)ccc1O (stereo unspecified),-31.5,–,"9.2 µM [falling, single point]"
CCn1c(O)c(/C=N/N=C/c2ccccc2)c2ccc(C3=NNC(=O)CC3)cc21,–,"0.517 µM [rising, full curve, poor fit]","1.3 µM [rising, partial curve]"
CC(/C=N/Nc1nc(C)cc(C)n1)=C\c1ccc(C(C)C)cc1,38.3,"2.31 µM [rising, full curve]","6.51 µM [rising, partial curve]"
COC(=O)c1ccc(NC(=O)CSc2ccc(-c3ccccn3)nn2)cc1,-5.65,"20.6 µM [rising, single point]",–
Cc1nn(C)c(C)c1/C=N/O,-2.12,–,–
Cc1ccccc1Nc1nc(N)nc(COC(=O)CCS(=O)(=O)c2ccccc2)n1,–,"2.06 µM [rising, full curve, poor fit]",–
CCn1c(CNC(=O)c2ccc(Cl)cc2)nnc1SCC(=O)NC1=NCCS1,17.9,–,–
COc1ccc(NC2CC(=O)N(c3ccc(C(=O)O)cc3)C2=O)cc1 (stereo unspecified),0.601,–,–
CCOC(=O)C1CCN(C(=O)c2cccc(S(=O)(=O)N(C)C3CCCCC3)c2)CC1,–,"0.092 µM [falling, full curve, poor fit]",–
O=C(Nc1ccccc1F)c1ccc2c(c1)CCN2S(=O)(=O)c1ccccc1,7.03,"6.51 µM [falling, single point]",–
CCSc1nccc(-c2nn(-c3ccc(C)cc3)ccc2=O)n1,30.2,"4.11 µM [rising, full curve]","0.651 µM [rising, full curve]"
N#C/C(=C(/O)c1ccc([N+](=O)[O-])cc1)c1nc2ccccc2[nH]1,46.9,"29.1 µM [rising, single point]","16.4 µM [rising, partial curve]"
Cc1ccc(Cl)cc1N1CCN(C2CCCCC2NS(=O)(=O)c2ccccc2)CC1 (stereo unspecified),7.34,–,"4.11 µM [rising, single point]"
Cc1cccc(OCC(=O)N(Cc2ccc(F)cc2)C2CCS(=O)(=O)C2)c1C (stereo unspecified),5.37,"0.731 µM [rising, single point]",–

SMILES,cell number change [%],AC50 [1],AC50 [2]
Nc1nc(Nc2cccc(C(F)(F)F)c2)nc(C(F)(F)F)n1,-45,"13 µM [falling, partial curve]","13 µM [falling, partial curve]"
Cc1cc(=O)oc2cc(OCC(=O)N3CCN(c4ccccc4)CC3)ccc12,0.622,–,–
CCOc1ccc(CCNC(=O)COC(=O)Cn2cnc3ccccc3c2=O)cc1OCC,17.1,"0.0731 µM [rising, full curve, poor fit]",–
O=S(=O)(O)c1nc2ccccc2n1Cc1cccc2ccccc12,28.4,"29.1 µM [rising, single point]",–
CCOc1ccc(CN(Cc2ccco2)S(=O)(=O)c2ccc(-n3cnnn3)c(OC)c2)cc1,25.8,–,"2.31 µM [rising, full curve, poor fit]"
Cc1ccc(C(=O)NC(=S)N2CCN(C)CC2)cc1Br,-0.829,"11.6 µM [rising, partial curve]",–
COc1ccc(-c2cc(C)no2)cc1S(=O)(=O)N1CCN(C(=O)c2ccco2)CC1,–,"14.6 µM [rising, partial curve]",–
COc1ccc(NC(=O)CN(c2ccccc2)S(=O)(=O)c2ccccc2)c(OC)c1,-20,–,–
S=C(NCc1ccccc1)N1CCN(C2CCCCC2)CC1,13.6,–,–
Cc1cccc(N2CN(Cc3cccnc3)CNC2=S)c1C,10.3,"0.82 µM [rising, full curve, poor fit]",–
O=C(N1CCOCC1)N1CCN(Cc2ccccc2)CC1,-8,"32.6 µM [falling, single point]",–
CN(Cc1ccccc1)S(=O)(=O)c1nnc(NC(=O)c2ccccc2F)s1,-37.6,–,"29.1 µM [falling, single point]"
COc1ccc(CNC(=O)C2CCCN(S(=O)(=O)N3CC(C)CC(C)C3)C2)c(OC)c1 (stereo unspecified),–,"29.1 µM [falling, single point]","6.51 µM [rising, single point]"
Cc1ccc(C(CNC(=O)Nc2ccc(Cl)cc2)N2CCN(C)CC2)cc1 (stereo unspecified),–,"0.58 µM [rising, single point]",–
Cc1oc(-c2ccccc2Cl)nc1CS(=O)(=O)CC(=O)NC(C)c1ccccc1 (stereo unspecified),3.75,–,–
Cc1ccccc1Cn1c2ccccc2c2cnn(CC(=O)N3CCN(c4ccccc4)CC3)c(=O)c21,–,"0.58 µM [falling, single point]",–
CS(=O)(=O)N1CCN(C(=O)c2ccc3c(c2)OCCO3)CC1,-2.64,"29.1 µM [rising, single point]",–
Cc1ccc(-c2csc3ncnc(Nc4ccc(N5CCOCC5)cc4)c23)cc1,-7.28,"0.116 µM [falling, full curve, poor fit]","0.103 µM [falling, full curve, poor fit]"
COc1cccc(S(=O)(=O)NCc2ccc(C(=O)N3CCN(Cc4ccccc4)CC3)cc2)c1,-16.7,–,–
CC(OC(=O)c1ccccc1C(=O)N(C)c1ccccc1)C(=O)Nc1ccc(C(N)=O)cc1 (stereo unspecified),2.72,"7.31 µM [falling, single point]",–

# One compound at a time, as listed above. Values in the order: cell number change [%]	AC50 [1]	AC50 [2]
# `CCOc1ccc(NCC(=O)N/N=C/C=C/c2ccccc2)cc1` as listed: 0.868	4.11 µM [rising, partial curve, poor fit]	–
# `NNc1nc2ccc(Cl)cc2s1` as listed: -4.83	16.4 µM [falling, single point]	–
